This is one part of the list. At the low end of the ranking the order means little.

The target in the test is T1, PUM1 PUF domain R1-QFR R2-VFQ R7-NPG S863Q + R864F + Q867R + N899V + Y900F + S1079N + N1080P + E1083G (UniProt Q14671).
T1 sequence: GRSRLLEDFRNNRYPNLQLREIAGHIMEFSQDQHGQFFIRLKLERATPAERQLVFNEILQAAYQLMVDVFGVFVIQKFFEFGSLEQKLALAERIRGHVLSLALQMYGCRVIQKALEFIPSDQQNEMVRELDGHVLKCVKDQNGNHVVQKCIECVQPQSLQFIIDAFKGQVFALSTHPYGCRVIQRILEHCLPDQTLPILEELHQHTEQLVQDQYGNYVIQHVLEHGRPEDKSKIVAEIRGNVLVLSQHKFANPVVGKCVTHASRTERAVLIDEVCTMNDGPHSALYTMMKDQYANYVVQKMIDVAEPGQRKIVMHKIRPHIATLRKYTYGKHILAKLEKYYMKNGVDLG
The conditions noted are these: yeast three-hybrid, YBZ-1, SC-Leu-His + 0.5 mM 3-AT, 4 days.
With “GGCUAGAACUAGUGGAUCCCCCGGCGCCCGGCGGCUCGAGCCCGGGUAAGAUUAGCUAGUCUGCAUGCCGCCGGGCGCCAUGCCUGCAGGUCGACUCUAGAAAACAUG”, the binding signal (log2 enrichment (interaction score)) was less than -5.48. “GGCUAGAACUAGUGGAUCCCCCGGCGCCCGGCGGCUCGAGCCCGGGUAAGUUAAGGUGGUCUGCAUGCCGCCGGGCGCCAUGCCUGCAGGUCGACUCUAGAAAACAUG”: the binding signal (log2 enrichment (interaction score)) is -5.83.

Turning to “GGCUAGAACUAGUGGAUCCCCCGGCGCCCGGCGGCUCGAGCCCGGGUAAGUGAAGGUAGUCUGCAUGCCGCCGGGCGCCAUGCCUGCAGGUCGACUCUAGAAAACAUG”, the binding signal (log2 enrichment (interaction score)) was less than -5.89.

For the sequence “GGCUAGAACUAGUGGAUCCCCCGGCGCCCGGCGGCUCGAGCCCGGGUAAGAUUUAAUCGUCUGCAUGCCGCCGGGCGCCAUGCCUGCAGGUCGACUCUAGAAAACAUG”, the binding signal (log2 enrichment (interaction score)) was less than -5.42. With “GGCUAGAACUAGUGGAUCCCCCGGCGCCCGGCGGCUCGAGCCCGGGUAAGUGUCUGAAGUCUGCAUGCCGCCGGGCGCCAUGCCUGCAGGUCGACUCUAGAAAACAUG”, the binding signal (log2 enrichment (interaction score)) was less than -6.4.

“GGCUAGAACUAGUGGAUCCCCCGGCGCCCGGCGGCUCGAGCCCGGGUAAGGUGACACCGUCUGCAUGCCGCCGGGCGCCAUGCCUGCAGGUCGACUCUAGAAAACAUG”: the binding signal (log2 enrichment (interaction score)) was less than -3.33. Regarding “GGCUAGAACUAGUGGAUCCCCCGGCGCCCGGCGGCUCGAGCCCGGGUAAGCUUGAGAAGUCUGCAUGCCGCCGGGCGCCAUGCCUGCAGGUCGACUCUAGAAAACAUG”, the binding signal (log2 enrichment (interaction score)) is -5.65. As to “GGCUAGAACUAGUGGAUCCCCCGGCGCCCGGCGGCUCGAGCCCGGGUAAGCUCAAGUCGUCUGCAUGCCGCCGGGCGCCAUGCCUGCAGGUCGACUCUAGAAAACAUG”, the binding signal (log2 enrichment (interaction score)) was -5.3. To “GGCUAGAACUAGUGGAUCCCCCGGCGCCCGGCGGCUCGAGCCCGGGUAAGUUUCAACCGUCUGCAUGCCGCCGGGCGCCAUGCCUGCAGGUCGACUCUAGAAAACAUG” belongs -4.89.

“GGCUAGAACUAGUGGAUCCCCCGGCGCCCGGCGGCUCGAGCCCGGGUAAGUUGGUGAAGUCUGCAUGCCGCCGGGCGCCAUGCCUGCAGGUCGACUCUAGAAAACAUG”: the binding signal (log2 enrichment (interaction score)) is less than -5.16. As to “GGCUAGAACUAGUGGAUCCCCCGGCGCCCGGCGGCUCGAGCCCGGGUAAGUCCUAAUCGUCUGCAUGCCGCCGGGCGCCAUGCCUGCAGGUCGACUCUAGAAAACAUG”, the binding signal (log2 enrichment (interaction score)) was -5.63. On to “GGCUAGAACUAGUGGAUCCCCCGGCGCCCGGCGGCUCGAGCCCGGGUAAGCUGUAGAUGUCUGCAUGCCGCCGGGCGCCAUGCCUGCAGGUCGACUCUAGAAAACAUG”, for which the binding signal (log2 enrichment (interaction score)) is -5.92.

For the sequence “GGCUAGAACUAGUGGAUCCCCCGGCGCCCGGCGGCUCGAGCCCGGGUAAGACUAAUAUGUCUGCAUGCCGCCGGGCGCCAUGCCUGCAGGUCGACUCUAGAAAACAUG”, the binding signal (log2 enrichment (interaction score)) is -3.02. Consider “GGCUAGAACUAGUGGAUCCCCCGGCGCCCGGCGGCUCGAGCCCGGGUAAGUUCACAAAGUCUGCAUGCCGCCGGGCGCCAUGCCUGCAGGUCGACUCUAGAAAACAUG”, for which the binding signal (log2 enrichment (interaction score)) is -6.31.

With “GGCUAGAACUAGUGGAUCCCCCGGCGCCCGGCGGCUCGAGCCCGGGUAAGUUAAUAGGGUCUGCAUGCCGCCGGGCGCCAUGCCUGCAGGUCGACUCUAGAAAACAUG”, the binding signal (log2 enrichment (interaction score)) is less than -5.48. With “GGCUAGAACUAGUGGAUCCCCCGGCGCCCGGCGGCUCGAGCCCGGGUAAGUUGGAUGUGUCUGCAUGCCGCCGGGCGCCAUGCCUGCAGGUCGACUCUAGAAAACAUG”, the binding signal (log2 enrichment (interaction score)) was less than -5.99.

Regarding “GGCUAGAACUAGUGGAUCCCCCGGCGCCCGGCGGCUCGAGCCCGGGUAAGGUGAAGAUGUCUGCAUGCCGCCGGGCGCCAUGCCUGCAGGUCGACUCUAGAAAACAUG”, the binding signal (log2 enrichment (interaction score)) is -6.78. As for “GGCUAGAACUAGUGGAUCCCCCGGCGCCCGGCGGCUCGAGCCCGGGUAAGUUUUAGCCGUCUGCAUGCCGCCGGGCGCCAUGCCUGCAGGUCGACUCUAGAAAACAUG”, the binding signal (log2 enrichment (interaction score)) was -5.29. In the case of “GGCUAGAACUAGUGGAUCCCCCGGCGCCCGGCGGCUCGAGCCCGGGUAAGUGGAAGUGGUCUGCAUGCCGCCGGGCGCCAUGCCUGCAGGUCGACUCUAGAAAACAUG”, the binding signal (log2 enrichment (interaction score)) is -5.69.

Take “GGCUAGAACUAGUGGAUCCCCCGGCGCCCGGCGGCUCGAGCCCGGGUAAGGGGAGGGCGUCUGCAUGCCGCCGGGCGCCAUGCCUGCAGGUCGACUCUAGAAAACAUG”: the binding signal (log2 enrichment (interaction score)) was -5.88. Under “GGCUAGAACUAGUGGAUCCCCCGGCGCCCGGCGGCUCGAGCCCGGGUAAGUUGACCUAGUCUGCAUGCCGCCGGGCGCCAUGCCUGCAGGUCGACUCUAGAAAACAUG” stands -5.56; under “GGCUAGAACUAGUGGAUCCCCCGGCGCCCGGCGGCUCGAGCCCGGGUAAGUUUAACGCGUCUGCAUGCCGCCGGGCGCCAUGCCUGCAGGUCGACUCUAGAAAACAUG”, -5.77.

For the sequence “GGCUAGAACUAGUGGAUCCCCCGGCGCCCGGCGGCUCGAGCCCGGGUAAGUAGUAAUGGUCUGCAUGCCGCCGGGCGCCAUGCCUGCAGGUCGACUCUAGAAAACAUG”, the binding signal (log2 enrichment (interaction score)) was -4.77. As for “GGCUAGAACUAGUGGAUCCCCCGGCGCCCGGCGGCUCGAGCCCGGGUAAGUUAAUCUUGUCUGCAUGCCGCCGGGCGCCAUGCCUGCAGGUCGACUCUAGAAAACAUG”, the binding signal (log2 enrichment (interaction score)) is -5.21. For “GGCUAGAACUAGUGGAUCCCCCGGCGCCCGGCGGCUCGAGCCCGGGUAAGACUAAACAGUCUGCAUGCCGCCGGGCGCCAUGCCUGCAGGUCGACUCUAGAAAACAUG”, the binding signal (log2 enrichment (interaction score)) was -6.69. Regarding “GGCUAGAACUAGUGGAUCCCCCGGCGCCCGGCGGCUCGAGCCCGGGUAAGCGAAGGAUGUCUGCAUGCCGCCGGGCGCCAUGCCUGCAGGUCGACUCUAGAAAACAUG”, the binding signal (log2 enrichment (interaction score)) was -5.6. To “GGCUAGAACUAGUGGAUCCCCCGGCGCCCGGCGGCUCGAGCCCGGGUAAGUGCGAAGAGUCUGCAUGCCGCCGGGCGCCAUGCCUGCAGGUCGACUCUAGAAAACAUG” belongs -7.05; to “GGCUAGAACUAGUGGAUCCCCCGGCGCCCGGCGGCUCGAGCCCGGGUAAGUUUCCAAAGUCUGCAUGCCGCCGGGCGCCAUGCCUGCAGGUCGACUCUAGAAAACAUG”, less than -6.25; to “GGCUAGAACUAGUGGAUCCCCCGGCGCCCGGCGGCUCGAGCCCGGGUAAGCUUUAAGAGUCUGCAUGCCGCCGGGCGCCAUGCCUGCAGGUCGACUCUAGAAAACAUG”, less than -6.74. Under “GGCUAGAACUAGUGGAUCCCCCGGCGCCCGGCGGCUCGAGCCCGGGUAAGUCGAACAAGUCUGCAUGCCGCCGGGCGCCAUGCCUGCAGGUCGACUCUAGAAAACAUG” stands -5.66; under “GGCUAGAACUAGUGGAUCCCCCGGCGCCCGGCGGCUCGAGCCCGGGUAAGCCUGAGCUGUCUGCAUGCCGCCGGGCGCCAUGCCUGCAGGUCGACUCUAGAAAACAUG”, -5.62.

These data come from article PMC8384837.
